PubChem BioAssay AID1259307, Sanger Institute – 2017
Test: 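Identify kinases needed for SW620 growth or enhancing BYL719, cetuximab or trametinib effects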 (primary screen). Cells: SW620 colorectal cancer cells. Knock-down reagent: siRNA pool against human genes. Challenge: anchor drugs BYL719 at 1 µM, cetuximab at 5 µg/ml or trametinib at 10 nM, each beside a DMSO vehicle arm. Measurement: 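Per-well viability versus non-targeting control pool, replicate-averaged, robust z-score from controls; synergy scores for BYL719 1 µM, cetuximab 5 µg/ml, trametinib 10 nM against DMSO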. Direction: viability robust z-score, no drug: higher = more viable cells. Active means: 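Essential when the viability robust z-score without drug is under -3; synergy scores are ignored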. Calls: active = essential (lethal alone); inactive = no change alone.
This is one part, drawn at random, of 794 reagents tested. Of all reagents, 15 (1.9%) were called active. 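Calls reflect lethality without any drug; synergy scores did not enter the calls.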 Further read-outs or replicates are left out here. Not given: the amount of reagent, the time to read-out.

| gene | viability robust z-score, no drug | call |
| --- | --- | --- |
| EPHA7 | 0.736 | inactive |
| PINK1 | 0.538 | inactive |
| EPHA6 | 0.736 | inactive |
| EPHB3 | 0.0915 | inactive |
| RIOK2 | -0.942 | inactive |
| KSR2 | 0.736 | inactive |
| ELF3 | -0.539 | inactive |
| DGKK | 0.565 | inactive |
| MVK | 0.736 | inactive |
| ABL1 | 0.736 | inactive |
| PRKD1 | -0.0798 | inactive |
| STK16 | -0.612 | inactive |
| PTK2 | 0.471 | inactive |
| GSK3A | 0.736 | inactive |
| DUSP21 | -0.439 | inactive |
| SLK | 0.736 | inactive |
| EIF2AK3 | -2.03 | inactive |
| CSNK2A1 | 0.736 | inactive |
| MAP3K13 | 0.736 | inactive |
| ERBB4 | 0.736 | inactive |
| NRAS | 0.736 | inactive |
| CDC42BPG | 0.736 | inactive |
| NEK7 | 0.394 | inactive |
| PFKM | 0.354 | inactive |
| MAST1 | 0.736 | inactive |
| DAPK1 | -0.0162 | inactive |
| NTRK2 | 0.736 | inactive |
| INSR | -0.226 | inactive |
| TRPM6 | 0.736 | inactive |
| BRSK1 | 0.736 | inactive |
| PIK3C2A | 0.573 | inactive |
| STK3 | -0.103 | inactive |
| MAST2 | 0.467 | inactive |
| CSNK2A2 | -0.991 | inactive |
| CDK15 | 0.732 | inactive |
| MARK3 | 0.307 | inactive |
| CDK18 | -0.877 | inactive |
| DGKG | -0.647 | inactive |
| CHUK | -0.275 | inactive |
| TESK2 | 0.736 | inactive |
| JAK3 | 0.736 | inactive |
| TGFBR3 | 0.363 | inactive |
| APC | -0.281 | inactive |
| AK3 | -1.75 | inactive |
| CDKL2 | 0.736 | inactive |
| PIP5K1B | -1.93 | inactive |
| CAMK1G | -1.5 | inactive |
| EPHA8 | -0.271 | inactive |
| ROCK1 | 0.537 | inactive |
| BLK | -1.03 | inactive |
| ETNK2 | 0.736 | inactive |
| GTF2H1 | -0.76 | inactive |
| CDKN2D | -0.783 | inactive |
| MAP2K6 | 0.736 | inactive |
| NTRK3 | 0.736 | inactive |
| CAMK1D | 0.288 | inactive |
| NUP107 | -6.43 | active |
| PKM | 0.736 | inactive |
| RIPK2 | -0.324 | inactive |
| EFNA4 | 0.736 | inactive |
| SBK1 | 0.333 | inactive |
| ADCK5 | 0.736 | inactive |
| TLK1 | 0.736 | inactive |

Sorted by “viability robust z-score, no drug” (highest first): 4 of the entries above.
| gene | viability robust z-score, no drug | call |
| --- | --- | --- |
| ETNK2 | 0.736 | inactive |
| GTF2H1 | -0.76 | inactive |
| CDKN2D | -0.783 | inactive |
| BLK | -1.03 | inactive |
